Source: the supplement of paper PMC10849652
The other results are listed elsewhere or left out. Residues, ends and D or L forms follow the SMILES beside them. *: point of attachment. Cbz = O=C(OCc1ccccc1)*

The chains behind the UniProt entries cited, without tags or fusion partners. Where a name states a change or a piece, a line headed by the entry shows the natural chain unless it says otherwise.
UniProt P60602: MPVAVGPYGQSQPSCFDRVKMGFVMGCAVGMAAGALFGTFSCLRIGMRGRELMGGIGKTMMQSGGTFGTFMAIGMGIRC
UniProt Q9H4P4: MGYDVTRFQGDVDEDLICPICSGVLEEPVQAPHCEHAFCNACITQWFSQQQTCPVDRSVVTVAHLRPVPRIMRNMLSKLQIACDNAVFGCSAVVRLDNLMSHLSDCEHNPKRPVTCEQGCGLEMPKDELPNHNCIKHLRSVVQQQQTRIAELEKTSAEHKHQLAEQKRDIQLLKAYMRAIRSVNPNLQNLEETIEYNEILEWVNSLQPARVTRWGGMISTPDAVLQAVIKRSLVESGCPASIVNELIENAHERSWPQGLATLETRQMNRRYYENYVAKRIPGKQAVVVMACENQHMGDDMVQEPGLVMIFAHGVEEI
UniProt O75150, whole entry, looked up: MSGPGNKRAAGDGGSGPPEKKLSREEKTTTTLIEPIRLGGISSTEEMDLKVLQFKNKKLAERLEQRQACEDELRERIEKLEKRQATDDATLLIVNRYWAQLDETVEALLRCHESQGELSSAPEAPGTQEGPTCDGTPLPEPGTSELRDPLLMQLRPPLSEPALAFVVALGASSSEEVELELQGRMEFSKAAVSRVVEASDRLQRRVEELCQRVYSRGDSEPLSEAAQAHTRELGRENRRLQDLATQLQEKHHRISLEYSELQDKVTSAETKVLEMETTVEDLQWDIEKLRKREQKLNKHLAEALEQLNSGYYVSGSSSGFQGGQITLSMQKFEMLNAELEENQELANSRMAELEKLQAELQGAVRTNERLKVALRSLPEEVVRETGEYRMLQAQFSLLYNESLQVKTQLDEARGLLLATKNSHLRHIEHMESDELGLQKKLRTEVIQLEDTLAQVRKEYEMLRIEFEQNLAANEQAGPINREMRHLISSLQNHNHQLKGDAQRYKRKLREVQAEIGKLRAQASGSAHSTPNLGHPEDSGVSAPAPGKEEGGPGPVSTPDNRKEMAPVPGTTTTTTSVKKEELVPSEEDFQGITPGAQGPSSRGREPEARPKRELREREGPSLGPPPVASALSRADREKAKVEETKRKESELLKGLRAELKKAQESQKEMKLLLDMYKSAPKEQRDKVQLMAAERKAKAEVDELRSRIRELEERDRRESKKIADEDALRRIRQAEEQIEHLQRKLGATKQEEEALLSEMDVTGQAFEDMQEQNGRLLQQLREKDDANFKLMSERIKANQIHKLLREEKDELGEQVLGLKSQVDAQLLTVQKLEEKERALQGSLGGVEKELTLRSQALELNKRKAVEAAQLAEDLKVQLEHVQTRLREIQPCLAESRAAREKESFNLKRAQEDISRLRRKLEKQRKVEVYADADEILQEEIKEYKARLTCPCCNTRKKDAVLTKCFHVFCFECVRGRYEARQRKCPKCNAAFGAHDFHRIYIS
UniProt O95059: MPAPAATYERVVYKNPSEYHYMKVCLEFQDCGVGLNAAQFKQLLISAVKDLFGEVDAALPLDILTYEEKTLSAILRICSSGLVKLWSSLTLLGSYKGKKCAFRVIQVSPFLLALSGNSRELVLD
UniProt Q96CM3: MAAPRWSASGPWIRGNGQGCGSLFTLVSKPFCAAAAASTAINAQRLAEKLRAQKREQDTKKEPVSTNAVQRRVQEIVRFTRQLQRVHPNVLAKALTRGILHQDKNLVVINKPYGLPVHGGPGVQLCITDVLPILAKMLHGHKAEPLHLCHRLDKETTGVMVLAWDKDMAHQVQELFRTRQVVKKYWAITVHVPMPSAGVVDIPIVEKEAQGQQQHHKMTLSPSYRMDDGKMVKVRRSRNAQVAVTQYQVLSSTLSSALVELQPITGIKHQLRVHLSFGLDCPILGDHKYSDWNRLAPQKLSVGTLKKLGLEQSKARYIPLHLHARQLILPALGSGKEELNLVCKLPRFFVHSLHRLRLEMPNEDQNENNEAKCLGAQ
UniProt P78317: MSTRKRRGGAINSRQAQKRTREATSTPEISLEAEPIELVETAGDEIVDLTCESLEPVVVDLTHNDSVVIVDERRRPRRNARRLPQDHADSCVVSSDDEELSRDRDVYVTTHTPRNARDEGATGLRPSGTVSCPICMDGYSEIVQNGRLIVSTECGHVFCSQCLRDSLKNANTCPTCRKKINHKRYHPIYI
UniProt P56182: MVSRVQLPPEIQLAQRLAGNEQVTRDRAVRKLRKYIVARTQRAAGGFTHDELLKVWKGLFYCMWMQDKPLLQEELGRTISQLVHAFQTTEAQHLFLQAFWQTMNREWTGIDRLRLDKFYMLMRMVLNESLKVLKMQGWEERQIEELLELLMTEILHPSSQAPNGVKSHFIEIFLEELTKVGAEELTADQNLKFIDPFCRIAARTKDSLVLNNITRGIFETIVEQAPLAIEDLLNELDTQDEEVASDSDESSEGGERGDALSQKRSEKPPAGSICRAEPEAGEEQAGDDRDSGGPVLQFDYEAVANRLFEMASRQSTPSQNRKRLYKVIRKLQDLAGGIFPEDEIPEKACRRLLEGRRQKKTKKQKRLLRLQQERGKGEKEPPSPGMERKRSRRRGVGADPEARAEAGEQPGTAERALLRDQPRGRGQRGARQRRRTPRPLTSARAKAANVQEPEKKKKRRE
UniProt Q9NYV6: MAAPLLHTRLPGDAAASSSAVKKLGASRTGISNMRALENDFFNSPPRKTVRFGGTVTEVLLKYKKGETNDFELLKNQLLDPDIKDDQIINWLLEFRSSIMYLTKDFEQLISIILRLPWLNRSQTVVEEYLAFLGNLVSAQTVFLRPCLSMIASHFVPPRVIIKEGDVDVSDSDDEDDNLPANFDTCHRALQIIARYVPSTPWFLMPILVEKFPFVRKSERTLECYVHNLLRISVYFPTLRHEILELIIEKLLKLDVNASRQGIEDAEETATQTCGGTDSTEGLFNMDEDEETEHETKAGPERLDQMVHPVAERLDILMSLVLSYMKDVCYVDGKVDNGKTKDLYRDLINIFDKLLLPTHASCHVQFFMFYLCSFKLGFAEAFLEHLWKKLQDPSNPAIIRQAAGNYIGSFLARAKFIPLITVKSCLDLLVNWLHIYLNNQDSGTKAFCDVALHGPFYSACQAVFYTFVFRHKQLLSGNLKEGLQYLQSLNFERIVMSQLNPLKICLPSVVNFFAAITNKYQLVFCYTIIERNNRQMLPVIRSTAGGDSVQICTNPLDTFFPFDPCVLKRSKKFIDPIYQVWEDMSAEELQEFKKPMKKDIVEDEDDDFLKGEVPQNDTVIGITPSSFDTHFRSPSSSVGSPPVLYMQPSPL
UniProt Q8N5L8: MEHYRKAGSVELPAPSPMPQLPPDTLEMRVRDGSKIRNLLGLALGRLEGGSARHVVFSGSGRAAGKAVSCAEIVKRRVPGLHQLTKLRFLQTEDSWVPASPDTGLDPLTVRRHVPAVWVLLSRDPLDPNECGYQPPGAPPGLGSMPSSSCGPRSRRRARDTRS
UniProt Q9GZN7, whole entry, looked up: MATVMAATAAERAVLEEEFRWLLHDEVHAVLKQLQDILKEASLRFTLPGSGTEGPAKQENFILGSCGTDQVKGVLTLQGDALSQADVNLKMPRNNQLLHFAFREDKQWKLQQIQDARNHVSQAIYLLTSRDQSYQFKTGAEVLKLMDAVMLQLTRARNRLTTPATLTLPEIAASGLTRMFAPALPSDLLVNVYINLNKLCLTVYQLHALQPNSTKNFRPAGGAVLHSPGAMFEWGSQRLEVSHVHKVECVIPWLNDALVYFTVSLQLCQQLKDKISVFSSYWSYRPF
UniProt P51812, whole entry, looked up: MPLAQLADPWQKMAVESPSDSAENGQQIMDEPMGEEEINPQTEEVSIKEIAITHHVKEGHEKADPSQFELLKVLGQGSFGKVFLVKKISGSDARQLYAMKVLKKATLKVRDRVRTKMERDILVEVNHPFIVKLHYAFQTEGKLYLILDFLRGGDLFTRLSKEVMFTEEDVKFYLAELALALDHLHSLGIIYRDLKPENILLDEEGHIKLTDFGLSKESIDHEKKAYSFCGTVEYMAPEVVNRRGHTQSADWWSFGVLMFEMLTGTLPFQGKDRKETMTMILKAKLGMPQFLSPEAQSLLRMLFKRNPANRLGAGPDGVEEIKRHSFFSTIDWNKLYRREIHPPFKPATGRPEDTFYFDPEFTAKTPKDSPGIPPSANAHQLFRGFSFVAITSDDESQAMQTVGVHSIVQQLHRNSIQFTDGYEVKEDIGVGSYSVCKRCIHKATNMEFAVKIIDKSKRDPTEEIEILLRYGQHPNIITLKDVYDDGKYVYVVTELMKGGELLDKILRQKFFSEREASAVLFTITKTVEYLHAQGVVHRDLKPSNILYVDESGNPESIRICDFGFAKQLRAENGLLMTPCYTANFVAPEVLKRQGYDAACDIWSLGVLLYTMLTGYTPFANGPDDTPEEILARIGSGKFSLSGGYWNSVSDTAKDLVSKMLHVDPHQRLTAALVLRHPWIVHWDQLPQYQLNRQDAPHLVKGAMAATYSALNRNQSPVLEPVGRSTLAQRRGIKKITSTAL
UniProt Q96EP0: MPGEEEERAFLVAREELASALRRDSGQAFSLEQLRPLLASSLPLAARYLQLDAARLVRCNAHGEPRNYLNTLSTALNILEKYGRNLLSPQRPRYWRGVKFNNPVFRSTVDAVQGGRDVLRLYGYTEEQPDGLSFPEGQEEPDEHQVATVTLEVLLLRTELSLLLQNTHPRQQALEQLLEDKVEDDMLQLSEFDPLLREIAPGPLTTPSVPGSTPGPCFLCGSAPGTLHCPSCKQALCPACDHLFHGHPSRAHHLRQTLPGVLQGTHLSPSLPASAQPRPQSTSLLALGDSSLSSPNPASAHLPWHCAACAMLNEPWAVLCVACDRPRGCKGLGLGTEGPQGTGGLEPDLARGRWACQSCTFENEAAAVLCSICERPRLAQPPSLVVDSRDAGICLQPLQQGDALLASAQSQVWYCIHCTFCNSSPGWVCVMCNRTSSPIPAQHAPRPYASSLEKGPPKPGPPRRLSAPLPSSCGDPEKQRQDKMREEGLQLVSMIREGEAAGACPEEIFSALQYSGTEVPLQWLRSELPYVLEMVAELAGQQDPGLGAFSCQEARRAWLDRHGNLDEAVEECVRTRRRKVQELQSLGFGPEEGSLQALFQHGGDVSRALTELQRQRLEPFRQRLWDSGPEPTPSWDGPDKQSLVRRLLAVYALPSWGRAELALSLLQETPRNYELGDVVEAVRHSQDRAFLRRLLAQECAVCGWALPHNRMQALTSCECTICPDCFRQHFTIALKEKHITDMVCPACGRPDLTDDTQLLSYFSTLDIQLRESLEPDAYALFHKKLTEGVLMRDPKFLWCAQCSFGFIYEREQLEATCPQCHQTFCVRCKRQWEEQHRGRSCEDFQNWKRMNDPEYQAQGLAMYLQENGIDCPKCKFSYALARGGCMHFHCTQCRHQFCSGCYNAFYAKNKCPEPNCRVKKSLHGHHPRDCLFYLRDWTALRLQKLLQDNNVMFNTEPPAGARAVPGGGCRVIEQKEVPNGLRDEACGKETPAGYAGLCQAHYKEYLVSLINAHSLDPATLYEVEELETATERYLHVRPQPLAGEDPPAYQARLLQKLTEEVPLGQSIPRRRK
UniProt O75582, whole entry, looked up: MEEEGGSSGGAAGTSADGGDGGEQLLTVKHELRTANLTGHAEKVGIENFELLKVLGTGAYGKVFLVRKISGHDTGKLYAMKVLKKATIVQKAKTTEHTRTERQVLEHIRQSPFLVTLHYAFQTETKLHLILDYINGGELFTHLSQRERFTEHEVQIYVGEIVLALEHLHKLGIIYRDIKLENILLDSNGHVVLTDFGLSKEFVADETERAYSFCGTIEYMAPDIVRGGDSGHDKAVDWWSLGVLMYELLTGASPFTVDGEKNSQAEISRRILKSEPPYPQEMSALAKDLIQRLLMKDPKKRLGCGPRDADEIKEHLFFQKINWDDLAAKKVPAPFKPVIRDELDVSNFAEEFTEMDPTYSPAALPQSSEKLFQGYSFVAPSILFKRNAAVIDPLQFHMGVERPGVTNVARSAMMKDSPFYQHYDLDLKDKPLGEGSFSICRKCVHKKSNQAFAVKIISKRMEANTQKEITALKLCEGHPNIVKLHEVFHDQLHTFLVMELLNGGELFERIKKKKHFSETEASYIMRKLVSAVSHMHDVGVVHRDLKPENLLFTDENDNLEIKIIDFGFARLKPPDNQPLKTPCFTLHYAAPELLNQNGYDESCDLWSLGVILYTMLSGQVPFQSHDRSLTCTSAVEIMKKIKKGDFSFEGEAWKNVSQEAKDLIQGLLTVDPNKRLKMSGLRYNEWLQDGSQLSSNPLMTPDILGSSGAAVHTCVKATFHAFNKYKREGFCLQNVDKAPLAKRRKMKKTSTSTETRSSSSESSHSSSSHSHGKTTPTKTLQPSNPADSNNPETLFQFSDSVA

Columns and labels:
Assay in all cases: log2 fold change, soluble protein after heating vs DMSO (PISA); higher = thermal stabilisation; K562 cells, 10 uM, 30 min; active = over 0.2 and 3.5 SD of the protein, either way, in both replicates (recomputed)
[1] = compound: C/C(=N\NC(=O)C1=CC(=CC=C1)S(=O)(=O)N2CCOCC2)/C3=C(C=CC(=C3)Cl)O
How it was run: (§1)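 For each measurement, 10 μM compound was applied for 30 min to K562 cells at 2×10^6 cells/mL. Aliquots were heated for 3 min across 48°C-58°C, pooled, and extracted in PBS with 0.5% NP-40 at 4°C; the supernatant after 21,000xg for 90 min was soluble protein. This was quantified by TMTpro 16plex LC-MS/MS with channel sums equalised, and thermal stability was reported relative to control samples from duplicates, on a log2 fold-change scale.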

[2] = compound: C1=CC2=C(C=CC(=C2)/C=C\3/C(=O)NC(=NCC4=CC=CS4)S3)N=C1
How it was run: as §1

[3] = compound: C1=CC=C2C(=C1)C3=NNC4=CC=CC(=C43)C2=O
How it was run: as §1

[4] = compound: C1CCN(C1)C(=O)NC2=CC=CC(=C2)NC3=NC=C(C(=N3)NCCC4=CN=CN4)Br
How it was run: as §1

[5] = compound: C1CN(CCC1(CC2=CC=C(C=C2)Cl)N)C3=NC=NC4=C3C=CN4
How it was run: as §1

[6] = compound: CC(=O)c1cnc2ccc(-c3cc(Cl)c(O)c(Cl)c3)nc2c1N[C@H]1CC[C@H](CN(C)C)CC1
How it was run: as §1

[7] = compound: CC1=C(C2=C(C=C1)C(=O)C3=CC=CC=C3N2CCCN)C
How it was run: as §1

erlotinib = compound: C#Cc1cccc(Nc2ncnc3cc(OCCOC)c(OCCOC)cc23)c1 [erlotinib]
How it was run: as §1

[8] = compound: C1=CC(=C(C=C1Cl)C2=NC3=NC=CN=C3C(=N2)NC4=CC=NC=C4)F
How it was run: as §1

[9] = compound: C1=CC(=CC=C1C2=NC3=C(N2)C=C(C=C3)C(=O)N)OC4=CC=C(C=C4)Cl
How it was run: as §1

[10] = compound: C1=CC2=NC=CN=C2C=C1/C=C/3\C(=O)NC(=O)S3
How it was run: as §1

[11] = compound: C1=CC=C(C=C1)C2=NC(=C(N2)C3=CC=NC=C3)C4=CC(=C(C=C4)Cl)O
How it was run: as §1

ibrutinib = compound: C=CC(=O)N1CCC[C@@H](n2nc(-c3ccc(Oc4ccccc4)cc3)c3c(N)ncnc32)C1 [ibrutinib]
How it was run: as §1

ralimetinib = compound: CC(C)(C)Cn1c(N)nc2ccc(-c3[nH]c(C(C)(C)C)nc3-c3ccc(F)cc3)nc21 [ralimetinib]
How it was run: as §1

[12] = compound: CC(C)(O)CC(=O)NCCn1ccc2ncnc(Nc3ccc(Oc4cccc(C(F)(F)F)c4)c(Cl)c3)c21
How it was run: as §1

[13] = compound: CC(C)C1=C2N=C(C=C(N2N=C1)NCC3=CC=CC=C3)NCCCCCCN
How it was run: as §1

[14] = compound: CC(C)C[C@@H](C=O)NC(=O)[C@H](CC(C)C)NC(=O)[C@H](CC(C)C)NC(=O)OCc1ccccc1
How it was run: as §1

[15] = compound: CC1=C(C(CC(=O)N1)C2=CC=C(C=C2)C(F)(F)F)C(=O)NC3=C(C=C4C(=C3)C=NN4)F
How it was run: as §1

IRAK-1-4 Inhibitor I = compound: C1COCCN1CCN2C3=CC=CC=C3N=C2NC(=O)C4=CC(=CC=C4)[N+](=O)[O-] [IRAK-1-4 Inhibitor I]
How it was run: as §1

pinometostat = compound: CC(C)N(C[C@H]1O[C@@H](n2cnc3c(N)ncnc32)[C@H](O)[C@@H]1O)[C@H]1C[C@@H](CCc2nc3cc(C(C)(C)C)ccc3[nH]2)C1 [pinometostat]
How it was run: as §1

Measured: log2 fold change

RPS3A (UniProt D6R9B6)
inactive: [1] -0.359 | [2] 0.198 | [3] -0.243 | [4] 0.303 | [5] 0.034 | [6] -0.124 | [7] -0.363

ROMO1 (UniProt P60602)
inactive: erlotinib 0.016 | [1] -0.092 | [8] 0.045 | [9] -0.01 | [2] -0.009 | [10] 0.018 | [11] 0.008 | [3] 0.003 | [4] 0.039 | [5] 0.001 | ibrutinib 0.069 | [6] -0.044 | ralimetinib -0.024 | [12] 0.052 | [13] -0.051 | [14] -0.083 | [7] -0.077

RPL10 (UniProt F8W7C6)
inactive: erlotinib -0.147 | [8] 0.04 | [9] 0.145 | [10] 0.197 | [4] 0.038 | [5] -0.191 | ibrutinib -0.049 | [12] 0 | [13] -0.089 | [15] 0.073 | [7] -0.353

RNF41 (UniProt Q9H4P4)
inactive: [1] 0.043 | [2] -0.074 | [10] -0.146 | [3] -0.002 | ibrutinib -0.104 | [6] 0.082

RNF40 (UniProt O75150)
inactive: erlotinib -0.08 | [9] -0.115 | [10] 0.042 | [11] 0.051 | [4] -0.069 | [5] 0.104 | ibrutinib -0.242 | ralimetinib 0.024 | [13] 0.021 | [14] 0.129 | [7] -0.098

RPP14 (UniProt O95059)
inactive: erlotinib -0.047 | [1] 0.09 | [8] -0.077 | [9] 0.059 | [2] -0.046 | [10] -0.023 | [11] 0.012 | [3] -0.022 | [4] -0.017 | [5] 0.021 | IRAK-1-4 Inhibitor I -0.035 | ibrutinib 0.073 | [6] -0.021 | ralimetinib 0.009 | [12] 0.051 | [13] -0.021 | [14] 0 | pinometostat 0.021 | [7] -0.04

Quoted from the entries so far (5 entries):
RPS3A (UniProt D6R9B6)
inactive: [1] -0.359 | [2] 0.198 | [3] -0.243 | [4] 0.303 | [5] 0.034 | [6] -0.124 | [7] -0.363

ROMO1 (UniProt P60602)
inactive: erlotinib 0.016 | [1] -0.092 | [8] 0.045 | [9] -0.01 | [2] -0.009 | [10] 0.018 | [11] 0.008 | [3] 0.003 | [4] 0.039 | [5] 0.001 | ibrutinib 0.069 | [6] -0.044 | ralimetinib -0.024 | [12] 0.052 | [13] -0.051 | [14] -0.083 | [7] -0.077

RPL10 (UniProt F8W7C6)
inactive: erlotinib -0.147 | [8] 0.04 | [9] 0.145 | [10] 0.197 | [4] 0.038 | [5] -0.191 | ibrutinib -0.049 | [12] 0 | [13] -0.089 | [15] 0.073 | [7] -0.353

RNF41 (UniProt Q9H4P4)
inactive: [1] 0.043 | [2] -0.074 | [10] -0.146 | [3] -0.002 | ibrutinib -0.104 | [6] 0.082

RNF40 (UniProt O75150)
inactive: erlotinib -0.08 | [9] -0.115 | [10] 0.042 | [11] 0.051 | [4] -0.069 | [5] 0.104 | ibrutinib -0.242 | ralimetinib 0.024 | [13] 0.021 | [14] 0.129 | [7] -0.098

Additional results:

RPUSD4 (UniProt Q96CM3)
inactive: [1] -0.134 | [8] -0.138 | [2] -0.017 | [11] -0.034 | [3] 0.061 | [4] -0.008 | [5] -0.158 | [6] 0.144 | ralimetinib 0.172 | [12] 0.067 | [14] 0.107 | [7] -0.342

RNF4 (UniProt P78317)
inactive: erlotinib 0 | [1] -0.325 | [8] 0.075 | [9] 0.237 | [2] -0.116 | [10] -0.22 | [3] -0.076 | [4] -0.197 | [5] 0.045 | ibrutinib 0.002 | [6] 0.077 | [12] -0.037 | [13] -0.14 | [15] 0.087 | [7] -0.379

RPL37 (UniProt P61927)
inactive: erlotinib -0.216 | [1] -0.235 | [9] 0.041 | [2] -0.193 | [10] 0.019 | [11] -0.12 | [3] 0.016 | [4] 0.076 | [5] -0.162 | IRAK-1-4 Inhibitor I -0.221 | ibrutinib -0.157 | [6] 0.159 | ralimetinib 0.119 | [13] 0.013 | [14] 0.102 | pinometostat 0.346 | [15] 0.102 | [7] -0.634

RRP1 (UniProt P56182)
inactive: erlotinib 0.011 | [9] 0.24 | [11] -0.198 | IRAK-1-4 Inhibitor I -0.159 | ralimetinib 0.092 | [13] 0.099 | [14] 0.265 | pinometostat 0.082

RRN3 (UniProt Q9NYV6)
inactive: erlotinib 0.093 | [8] -0.668 | [9] 0.162 | IRAK-1-4 Inhibitor I -0.037 | [12] -0.218 | [13] 0.044 | pinometostat 0.007

RPS19 (UniProt M0R2L9)
inactive: [1] -0.054 | [2] -0.246 | [3] 0.732 | [4] 0.522 | [5] -0.095 | [6] -0.083 | [7] -0.177

RPP25L (UniProt Q8N5L8)
inactive: [1] -0.004 | [8] -0.029 | [9] 0.031 | [2] -0.001 | [10] 0.041 | [11] 0.014 | [3] -0.065 | [4] 0.01 | [5] 0.01 | IRAK-1-4 Inhibitor I -0.102 | ibrutinib 0.021 | [6] -0.004 | ralimetinib 0.049 | [12] -0.015 | [13] -0.293 | [14] 0.035 | pinometostat -0.002
active: erlotinib 0.274 | [7] -0.288

ROGDI (UniProt Q9GZN7)
inactive: [11] -0.024 | ralimetinib 0.066 | [14] 0.121

RPUSD3 (UniProt Q6P087)
inactive: [1] 0.134 | [2] -0.214 | [3] -0.198 | [6] -0.042 | [15] 0.089

RREB1 isoform 2 (UniProt Q92766)
inactive: erlotinib -0.035 | [8] -0.179 | [9] 0.036 | [10] -0.084 | [11] 0.032 | [4] 0.114 | [5] -0.127 | IRAK-1-4 Inhibitor I -0.107 | ibrutinib -0.11 | ralimetinib 0.027 | [12] -0.141 | [13] 0.002 | [14] 0 | pinometostat -0.037 | [7] -0.222

RPS6KA3 (UniProt P51812)
inactive: erlotinib -0.024 | [1] 0.08 | [8] 0.018 | [9] 0.072 | [10] 0.061 | [11] -0.043 | [4] -0.085 | [5] -0.017 | IRAK-1-4 Inhibitor I 0.03 | ibrutinib -0.048 | [6] -0.194 | [12] -0.061 | [13] -0.076 | [14] 0.121 | pinometostat 0.011 | [7] 0.001
active: [3] -0.345 | ralimetinib -0.359

RNF31 (UniProt Q96EP0)
inactive: erlotinib 0.111 | [8] -0.19 | [9] 0.092 | [4] -0.125 | [5] -0.045 | [12] -0.076 | [13] 0.031 | [15] 0.084 | [7] 0.028

RPS6KA5 (UniProt O75582)
inactive: erlotinib 0.239 | [8] -0.079 | [9] -0.234 | [11] -0.091 | IRAK-1-4 Inhibitor I 0.071 | ralimetinib -0.11 | [12] -0.042 | [13] -0.218 | [14] 0.069 | pinometostat -0.431

RPS19 (UniProt P39019)
inactive: erlotinib -0.141 | [1] -0.102 | [8] -0.274 | [9] 0.057 | [2] -0.082 | [10] -0.044 | [11] -0.026 | [3] -0.015 | [4] 0.094 | [5] -0.145 | IRAK-1-4 Inhibitor I -0.085 | ibrutinib 0.052 | [6] 0.05 | ralimetinib 0.064 | [12] 0.03 | [13] -0.025 | [14] 0.039 | pinometostat 0.084
active: [7] -0.523
